In the supplement of paper PMC10849652:
This is one part of the list.

Chains of the proteins cited; added tags and fusions are not shown. Lines headed by an entry give the natural chain unless they say otherwise; changes in a name come on top.
UniProt O94782: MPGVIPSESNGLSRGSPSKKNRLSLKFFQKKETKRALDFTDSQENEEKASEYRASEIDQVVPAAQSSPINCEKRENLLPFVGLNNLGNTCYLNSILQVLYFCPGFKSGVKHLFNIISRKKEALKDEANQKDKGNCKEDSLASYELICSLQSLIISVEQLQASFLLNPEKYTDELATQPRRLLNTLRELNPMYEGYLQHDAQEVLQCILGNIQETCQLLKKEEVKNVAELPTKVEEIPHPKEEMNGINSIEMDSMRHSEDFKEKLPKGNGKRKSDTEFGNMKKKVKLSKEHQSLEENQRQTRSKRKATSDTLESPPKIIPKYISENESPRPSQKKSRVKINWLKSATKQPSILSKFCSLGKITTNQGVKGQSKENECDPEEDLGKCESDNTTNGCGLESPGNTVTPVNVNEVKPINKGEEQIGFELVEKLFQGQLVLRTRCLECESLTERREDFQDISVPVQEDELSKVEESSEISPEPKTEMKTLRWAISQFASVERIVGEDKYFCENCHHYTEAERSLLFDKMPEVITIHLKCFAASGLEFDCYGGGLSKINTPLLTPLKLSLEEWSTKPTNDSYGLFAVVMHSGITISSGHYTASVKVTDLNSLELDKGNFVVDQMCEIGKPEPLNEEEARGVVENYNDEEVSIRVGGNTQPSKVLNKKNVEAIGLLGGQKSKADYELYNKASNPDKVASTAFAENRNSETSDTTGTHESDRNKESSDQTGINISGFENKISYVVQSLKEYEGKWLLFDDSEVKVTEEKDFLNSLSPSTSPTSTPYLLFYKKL
UniProt Q9BTM9: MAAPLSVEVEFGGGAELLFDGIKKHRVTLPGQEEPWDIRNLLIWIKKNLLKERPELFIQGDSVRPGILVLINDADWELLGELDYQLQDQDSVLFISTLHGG
UniProt Q9Y5J1: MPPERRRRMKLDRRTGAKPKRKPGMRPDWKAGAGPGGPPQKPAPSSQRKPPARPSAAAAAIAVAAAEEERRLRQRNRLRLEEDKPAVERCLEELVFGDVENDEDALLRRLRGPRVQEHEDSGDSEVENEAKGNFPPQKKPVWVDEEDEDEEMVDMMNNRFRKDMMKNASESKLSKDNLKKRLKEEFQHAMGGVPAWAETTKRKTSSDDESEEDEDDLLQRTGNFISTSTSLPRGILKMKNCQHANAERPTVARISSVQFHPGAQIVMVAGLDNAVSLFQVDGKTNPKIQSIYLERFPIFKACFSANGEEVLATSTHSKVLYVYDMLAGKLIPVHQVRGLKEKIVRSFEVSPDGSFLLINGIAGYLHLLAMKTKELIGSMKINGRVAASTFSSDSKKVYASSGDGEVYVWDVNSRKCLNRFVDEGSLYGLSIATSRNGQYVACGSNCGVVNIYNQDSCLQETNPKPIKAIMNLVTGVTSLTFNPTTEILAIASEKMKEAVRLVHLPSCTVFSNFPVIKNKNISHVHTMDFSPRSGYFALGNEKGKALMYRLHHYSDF
UniProt P62068, whole entry, looked up: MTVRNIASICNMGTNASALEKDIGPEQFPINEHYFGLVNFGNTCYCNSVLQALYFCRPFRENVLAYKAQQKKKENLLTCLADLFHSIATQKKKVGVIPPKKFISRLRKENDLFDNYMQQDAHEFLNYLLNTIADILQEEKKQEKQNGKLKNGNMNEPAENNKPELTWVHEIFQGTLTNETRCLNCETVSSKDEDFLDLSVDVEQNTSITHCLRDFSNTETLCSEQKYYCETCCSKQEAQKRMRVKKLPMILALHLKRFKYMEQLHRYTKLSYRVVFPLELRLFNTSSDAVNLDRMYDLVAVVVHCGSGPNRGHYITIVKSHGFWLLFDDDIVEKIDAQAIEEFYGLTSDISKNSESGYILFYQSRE
UniProt Q9C0B0: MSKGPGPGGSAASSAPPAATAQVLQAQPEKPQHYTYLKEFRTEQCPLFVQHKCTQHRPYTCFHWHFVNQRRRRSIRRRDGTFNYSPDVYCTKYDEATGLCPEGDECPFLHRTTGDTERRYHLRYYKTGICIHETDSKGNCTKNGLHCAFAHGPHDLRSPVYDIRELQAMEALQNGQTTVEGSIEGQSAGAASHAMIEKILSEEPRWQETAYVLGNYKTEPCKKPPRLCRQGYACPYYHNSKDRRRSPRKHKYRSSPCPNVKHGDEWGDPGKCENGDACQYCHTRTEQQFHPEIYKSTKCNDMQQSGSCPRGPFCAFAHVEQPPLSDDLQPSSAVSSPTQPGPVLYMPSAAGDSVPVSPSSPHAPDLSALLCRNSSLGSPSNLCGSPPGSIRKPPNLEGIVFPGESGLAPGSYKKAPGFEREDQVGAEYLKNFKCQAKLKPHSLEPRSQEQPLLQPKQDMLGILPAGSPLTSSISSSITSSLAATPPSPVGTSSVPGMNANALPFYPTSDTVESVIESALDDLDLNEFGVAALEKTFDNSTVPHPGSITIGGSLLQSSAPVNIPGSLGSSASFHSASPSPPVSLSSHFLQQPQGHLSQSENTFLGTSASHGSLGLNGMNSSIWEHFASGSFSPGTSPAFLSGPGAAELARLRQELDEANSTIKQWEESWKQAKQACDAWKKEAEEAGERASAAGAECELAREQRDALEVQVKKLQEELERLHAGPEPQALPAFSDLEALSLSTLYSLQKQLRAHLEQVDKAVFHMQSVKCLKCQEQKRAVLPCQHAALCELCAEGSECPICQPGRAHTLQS
UniProt Q9H1J1: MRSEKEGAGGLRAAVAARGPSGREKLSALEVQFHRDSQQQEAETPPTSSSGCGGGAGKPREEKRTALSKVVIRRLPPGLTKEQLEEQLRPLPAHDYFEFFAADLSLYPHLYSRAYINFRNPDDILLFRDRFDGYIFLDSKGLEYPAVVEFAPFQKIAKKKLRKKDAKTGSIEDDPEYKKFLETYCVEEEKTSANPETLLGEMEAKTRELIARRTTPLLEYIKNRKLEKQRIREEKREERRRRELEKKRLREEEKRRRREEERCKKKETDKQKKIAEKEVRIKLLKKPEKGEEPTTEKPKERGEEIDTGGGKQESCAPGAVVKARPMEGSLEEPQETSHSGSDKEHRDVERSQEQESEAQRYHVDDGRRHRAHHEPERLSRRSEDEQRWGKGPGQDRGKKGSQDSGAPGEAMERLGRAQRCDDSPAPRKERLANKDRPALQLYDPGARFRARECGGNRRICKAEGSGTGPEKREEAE
UniProt Q6ZT12: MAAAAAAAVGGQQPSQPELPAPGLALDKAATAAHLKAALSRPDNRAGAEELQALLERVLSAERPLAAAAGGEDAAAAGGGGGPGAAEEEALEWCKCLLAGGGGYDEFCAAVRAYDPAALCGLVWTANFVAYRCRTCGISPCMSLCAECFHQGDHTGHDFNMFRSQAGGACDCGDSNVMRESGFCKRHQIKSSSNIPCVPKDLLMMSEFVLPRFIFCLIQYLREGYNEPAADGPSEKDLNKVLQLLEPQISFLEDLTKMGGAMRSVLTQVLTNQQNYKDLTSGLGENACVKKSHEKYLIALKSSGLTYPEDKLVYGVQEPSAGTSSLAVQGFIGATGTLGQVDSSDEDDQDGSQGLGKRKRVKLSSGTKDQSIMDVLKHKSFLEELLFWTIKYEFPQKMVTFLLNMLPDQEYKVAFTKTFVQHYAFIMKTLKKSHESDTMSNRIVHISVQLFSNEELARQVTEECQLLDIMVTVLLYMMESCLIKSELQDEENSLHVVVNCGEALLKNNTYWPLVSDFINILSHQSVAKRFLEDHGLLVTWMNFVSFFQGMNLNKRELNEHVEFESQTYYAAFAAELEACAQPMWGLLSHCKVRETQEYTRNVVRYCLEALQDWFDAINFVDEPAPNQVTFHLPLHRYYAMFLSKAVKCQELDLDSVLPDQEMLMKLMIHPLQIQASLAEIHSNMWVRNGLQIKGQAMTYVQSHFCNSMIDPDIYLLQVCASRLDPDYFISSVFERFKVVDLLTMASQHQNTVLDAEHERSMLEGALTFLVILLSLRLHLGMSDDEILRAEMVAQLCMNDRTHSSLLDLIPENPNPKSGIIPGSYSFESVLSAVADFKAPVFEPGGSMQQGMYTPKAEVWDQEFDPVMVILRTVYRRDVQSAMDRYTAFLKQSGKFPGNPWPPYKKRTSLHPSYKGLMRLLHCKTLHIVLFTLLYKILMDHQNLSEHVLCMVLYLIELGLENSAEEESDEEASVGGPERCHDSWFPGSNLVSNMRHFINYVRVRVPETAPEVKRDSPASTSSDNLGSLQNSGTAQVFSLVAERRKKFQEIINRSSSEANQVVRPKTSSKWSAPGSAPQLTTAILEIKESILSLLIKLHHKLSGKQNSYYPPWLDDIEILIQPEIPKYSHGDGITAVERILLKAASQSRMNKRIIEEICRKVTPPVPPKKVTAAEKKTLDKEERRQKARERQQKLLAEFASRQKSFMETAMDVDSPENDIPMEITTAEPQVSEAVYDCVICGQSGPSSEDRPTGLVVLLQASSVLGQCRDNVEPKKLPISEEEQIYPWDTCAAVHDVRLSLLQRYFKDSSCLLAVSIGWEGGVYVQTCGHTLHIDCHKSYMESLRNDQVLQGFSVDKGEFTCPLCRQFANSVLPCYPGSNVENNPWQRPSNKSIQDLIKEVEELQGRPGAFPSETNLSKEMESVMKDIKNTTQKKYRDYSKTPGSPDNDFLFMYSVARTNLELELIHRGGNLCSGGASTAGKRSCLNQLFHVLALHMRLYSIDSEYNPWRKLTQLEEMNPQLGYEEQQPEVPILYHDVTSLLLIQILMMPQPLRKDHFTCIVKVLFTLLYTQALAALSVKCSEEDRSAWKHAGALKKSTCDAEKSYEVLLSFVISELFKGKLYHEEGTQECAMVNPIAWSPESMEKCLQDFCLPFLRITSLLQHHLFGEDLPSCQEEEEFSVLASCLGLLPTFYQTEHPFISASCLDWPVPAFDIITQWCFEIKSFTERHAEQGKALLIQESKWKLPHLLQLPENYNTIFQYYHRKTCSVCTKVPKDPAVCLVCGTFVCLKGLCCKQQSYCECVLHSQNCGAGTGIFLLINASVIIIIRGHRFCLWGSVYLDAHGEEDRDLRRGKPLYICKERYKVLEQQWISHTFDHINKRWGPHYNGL
UniProt P61960, whole entry, looked up: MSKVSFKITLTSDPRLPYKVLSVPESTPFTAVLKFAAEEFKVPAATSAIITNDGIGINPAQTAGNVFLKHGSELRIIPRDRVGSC
UniProt Q9UPT9: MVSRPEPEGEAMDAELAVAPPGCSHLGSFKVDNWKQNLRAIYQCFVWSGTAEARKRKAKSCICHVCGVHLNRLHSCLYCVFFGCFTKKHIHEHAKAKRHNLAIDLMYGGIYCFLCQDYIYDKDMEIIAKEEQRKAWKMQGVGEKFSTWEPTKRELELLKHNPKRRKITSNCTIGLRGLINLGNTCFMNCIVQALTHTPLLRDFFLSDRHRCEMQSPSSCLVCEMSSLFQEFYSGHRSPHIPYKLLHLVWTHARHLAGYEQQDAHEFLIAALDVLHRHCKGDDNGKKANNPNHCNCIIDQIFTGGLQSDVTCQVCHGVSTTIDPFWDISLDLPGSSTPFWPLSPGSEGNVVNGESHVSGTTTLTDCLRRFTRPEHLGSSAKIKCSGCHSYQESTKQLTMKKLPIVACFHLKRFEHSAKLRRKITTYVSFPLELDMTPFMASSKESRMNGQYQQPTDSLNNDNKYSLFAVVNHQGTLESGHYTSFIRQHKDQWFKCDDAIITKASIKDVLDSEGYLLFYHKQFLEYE
UniProt Q5TAP6: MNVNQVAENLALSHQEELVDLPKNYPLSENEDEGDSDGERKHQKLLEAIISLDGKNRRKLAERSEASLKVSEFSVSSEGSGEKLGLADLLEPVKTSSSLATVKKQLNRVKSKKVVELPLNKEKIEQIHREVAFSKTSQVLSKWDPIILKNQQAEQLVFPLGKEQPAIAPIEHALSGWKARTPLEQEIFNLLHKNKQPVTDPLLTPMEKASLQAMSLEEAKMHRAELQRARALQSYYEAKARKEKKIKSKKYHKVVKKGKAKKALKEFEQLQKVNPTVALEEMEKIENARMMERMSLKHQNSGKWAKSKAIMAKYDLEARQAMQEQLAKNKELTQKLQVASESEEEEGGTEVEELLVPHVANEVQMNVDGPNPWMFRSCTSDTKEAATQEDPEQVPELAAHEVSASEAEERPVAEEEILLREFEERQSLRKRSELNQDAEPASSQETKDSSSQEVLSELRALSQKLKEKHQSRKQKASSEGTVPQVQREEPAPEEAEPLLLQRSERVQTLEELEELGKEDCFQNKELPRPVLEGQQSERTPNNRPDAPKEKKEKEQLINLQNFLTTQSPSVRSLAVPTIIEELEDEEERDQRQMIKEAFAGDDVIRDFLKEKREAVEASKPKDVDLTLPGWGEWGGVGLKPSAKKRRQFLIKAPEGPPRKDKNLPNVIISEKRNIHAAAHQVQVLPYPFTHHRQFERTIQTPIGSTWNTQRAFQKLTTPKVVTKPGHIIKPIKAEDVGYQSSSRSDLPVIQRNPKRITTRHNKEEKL
UniProt C9J7I0: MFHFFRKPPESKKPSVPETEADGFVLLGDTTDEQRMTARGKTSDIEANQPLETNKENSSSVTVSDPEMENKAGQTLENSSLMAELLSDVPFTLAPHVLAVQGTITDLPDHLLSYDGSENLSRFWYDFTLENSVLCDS
UniProt Q15836, whole entry, looked up: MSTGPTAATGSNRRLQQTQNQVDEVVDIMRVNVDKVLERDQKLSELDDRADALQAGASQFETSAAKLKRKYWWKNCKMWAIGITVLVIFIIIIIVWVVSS

Compound: CC1=C(C=C(C=C1)NC(=O)C2=CC(=CC=C2)C(C)(C)C#N)NC3=CC4=C(C=C3)N=CN(C4=O)C
Assay: log2 fold change, soluble protein after heating vs DMSO (PISA); higher = thermal stabilisation; K562 cells, 10 uM, 30 min; active = over 0.2 and 3.5 SD of the protein, either way, in both replicates (recomputed)
Method in brief: (§1)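 Soluble protein was defined as the supernatant after 21,000xg for 90 min. It came from K562 cells at 2×10^6 cells/mL given 10 μM compound for 30 min, heated in aliquots for 3 min across 48°C-58°C, pooled, and extracted in PBS with 0.5% NP-40 at 4°C, and was quantified by TMTpro 16plex LC-MS/MS with equalised channel sums. Thermal stability against control samples, from duplicates, is reported as log2 fold change.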

Row | Target | log2 fold change
1 | UBTF (UniProt P17480) | inactive: -0.036
2 | VASN (UniProt Q6EMK4) | inactive: 0.006
3 | UBR1 (UniProt Q8IWV7) | inactive: -0.104
4 | USP48 (UniProt Q86UV5) | inactive: -0.096
5 | USP1 (UniProt O94782) | inactive: -0.014
6 | URM1 isoform 2 (UniProt Q9BTM9) | inactive: -0.071
7 | UTP18 (UniProt Q9Y5J1) | inactive: 0.066
8 | USP33 (UniProt Q8TEY7) | inactive: 0.124
9 | UNG (UniProt P13051) | inactive: 0.057
10 | USP46 (UniProt P62068) | inactive: -0.073
11 | UNK (UniProt Q9C0B0) | inactive: 0.053
12 | UPF3A (UniProt Q9H1J1) | inactive: -0.158
13 | UBR3 isoform 4 (UniProt Q6ZT12) | inactive: 0.017
14 | VCPIP1 (UniProt Q96JH7) | inactive: -0.053
15 | UNC13A (UniProt Q9UPW8) | inactive: 0.117
16 | UEVLD (UniProt Q8IX04) | inactive: -0.109
17 | UFM1 isoform 2 (UniProt P61960) | inactive: 0.004
18 | UGP2 (UniProt C9JWG0) | inactive: 0.073
19 | USP22 (UniProt Q9UPT9) | inactive: 0.014
20 | UTP14C (UniProt Q5TAP6) | inactive: 0.084

Compound: CC1=C(C=C(C=C1)NC(=O)C2=CC(=CC=C2)N(C)C)NC(=O)C3=CC=C(C=C3)O
Assay: as above
Method in brief: as §1

Row | Target | log2 fold change
21 | UBTF (UniProt P17480) | inactive: -0.032
22 | USP12 (UniProt O75317) | inactive: 0.042
23 | UBQLN3 (UniProt Q9H347) | inactive: -0.098
24 | USP1 (UniProt O94782) | inactive: -0.059
25 | URM1 isoform 2 (UniProt Q9BTM9) | inactive: -0.035
26 | UTP18 (UniProt Q9Y5J1) | inactive: 0.237
27 | USP16 (UniProt Q9Y5T5) | inactive: -0.012
28 | VAV1 (UniProt P15498) | inactive: 0.081
29 | USP33 (UniProt Q8TEY7) | inactive: -0.089
30 | UQCR11 (UniProt O14957) | inactive: -0.047
31 | UMAD1 (UniProt C9J7I0) | inactive: -0.034
32 | USP27X (UniProt A6NNY8) | inactive: -0.032

Compound: CC1=CC=C(C=C1)SC2=C3C=C(SC3=CN=C2)C(=O)N
Assay: as above
Method in brief: as §1

Row | Target | log2 fold change
33 | USP54 (UniProt Q70EL1) | inactive: -0.041
34 | UBQLN3 (UniProt Q9H347) | inactive: -0.149
35 | USP46 (UniProt P62068) | inactive: -0.036
36 | UNK (UniProt Q9C0B0) | inactive: -0.02
37 | UMAD1 (UniProt C9J7I0) | inactive: 0.062
38 | UBR3 isoform 4 (UniProt Q6ZT12) | inactive: 0.038
39 | USB1 (UniProt Q9BQ65) | inactive: 0.128
40 | UTP20 (UniProt O75691) | inactive: 0.037
41 | UPP1 (UniProt Q16831) | inactive: 0.062
42 | UFM1 isoform 2 (UniProt P61960) | inactive: -0.01
43 | USP22 (UniProt Q9UPT9) | inactive: 0.005

Compound: CC1=NC(=CC=C1)C2=C(N=C(N2)C(C)(C)C)C3=CC4=NC=CN=C4C=C3
Assay: as above
Method in brief: as §1

Row | Target | log2 fold change
44 | UBTF (UniProt P17480) | inactive: 0.084
45 | USP4 (UniProt Q13107) | inactive: -0.16
46 | UBQLN3 (UniProt Q9H347) | inactive: 0.113
47 | USP1 (UniProt O94782) | inactive: 0.182
48 | URM1 isoform 2 (UniProt Q9BTM9) | inactive: -0.085
49 | UTP18 (UniProt Q9Y5J1) | inactive: -0.335
50 | URB2 (UniProt Q14146) | inactive: -0.188
51 | USP16 (UniProt Q9Y5T5) | inactive: -0.053
52 | UBN2 (UniProt Q6ZU65) | inactive: 0.163
53 | UQCR11 (UniProt O14957) | inactive: 0.048
54 | USP46 (UniProt P62068) | inactive: -0.058
55 | VAMP3 (UniProt Q15836) | inactive: 0.038
56 | UNK (UniProt Q9C0B0) | inactive: 0.045
57 | UPF3A (UniProt Q9H1J1) | inactive: -0.196
58 | UMAD1 (UniProt C9J7I0) | inactive: 0.013
59 | UBR3 isoform 4 (UniProt Q6ZT12) | inactive: 0.069
60 | UEVLD (UniProt Q8IX04) | inactive: -0.287
61 | UPP1 (UniProt Q16831) | inactive: -0.003
62 | UGP2 (UniProt C9JWG0) | inactive: -0.162
63 | USP22 (UniProt Q9UPT9) | inactive: 0.003
64 | UTP14C (UniProt Q5TAP6) | inactive: 0.098

Compound: CCCCN(Cc1ccc(C(=O)NO)cc1)C(=O)Nc1ccccc1 [Nexturastat A]
Assay: as above
Method in brief: as §1

Row | Target | log2 fold change
65 | UQCC3 (UniProt Q6UW78) | inactive: -0.005
66 | VASN (UniProt Q6EMK4) | inactive: 0.001
67 | UBR1 (UniProt Q8IWV7) | inactive: -0.017
68 | UBQLN3 (UniProt Q9H347) | inactive: -0.036
69 | USP1 (UniProt O94782) | inactive: -0.065
70 | UTP18 (UniProt Q9Y5J1) | inactive: 0.325
71 | USP16 (UniProt Q9Y5T5) | inactive: 0.279
72 | UNC5B (UniProt Q8IZJ1) | inactive: -0.003
73 | VAV1 (UniProt P15498) | inactive: 0.192
74 | UNG (UniProt P13051) | inactive: 0.127
75 | USP46 (UniProt P62068) | inactive: 0.21
76 | VAMP3 (UniProt Q15836) | inactive: -0.059
77 | UPF3A (UniProt Q9H1J1) | inactive: 0.435
78 | UBR3 isoform 4 (UniProt Q6ZT12) | inactive: 0.105
79 | VCPIP1 (UniProt Q96JH7) | inactive: 0.516
80 | UEVLD (UniProt Q8IX04) | inactive: 0.131
81 | UTP20 (UniProt O75691) | active: 0.755
82 | UFM1 isoform 2 (UniProt P61960) | active: -0.36
83 | USP27X (UniProt A6NNY8) | inactive: 0.074
84 | USP22 (UniProt Q9UPT9) | inactive: 0.071
85 | UTP14C (UniProt Q5TAP6) | inactive: -0.075
